Measurements from PubChem BioAssay AID2551 (National Center for Advancing Translational Sciences (NCATS), 2010).
Where “and” joins values, the source holds several entries; their conditions need not be identical. Equal values may be shown once. About 17,000 (5.5%) of roughly 310,000 compounds were called active. Inconclusive means that the source gave no clear call. Such entries were picked first, then a sample of the others. The call rests on the fitted dose curve; in most records, active means well fitted inhibition curve with a large enough effect; inconclusive means small, poorly fitted or top-dose-only effect, or effect the other way; inactive means no such curve, though single readings can be large or run the other way. Where the call is inconclusive, the potency comes from a doubtful curve fit. Where a structure was tested more than once in an assay, its records may differ in their call.

By UniProt entry, the sequences of proteins in these tests, tags left out. Where a name states a change or a piece, a line headed by the entry shows the natural chain unless it says otherwise.
UniProt P51450: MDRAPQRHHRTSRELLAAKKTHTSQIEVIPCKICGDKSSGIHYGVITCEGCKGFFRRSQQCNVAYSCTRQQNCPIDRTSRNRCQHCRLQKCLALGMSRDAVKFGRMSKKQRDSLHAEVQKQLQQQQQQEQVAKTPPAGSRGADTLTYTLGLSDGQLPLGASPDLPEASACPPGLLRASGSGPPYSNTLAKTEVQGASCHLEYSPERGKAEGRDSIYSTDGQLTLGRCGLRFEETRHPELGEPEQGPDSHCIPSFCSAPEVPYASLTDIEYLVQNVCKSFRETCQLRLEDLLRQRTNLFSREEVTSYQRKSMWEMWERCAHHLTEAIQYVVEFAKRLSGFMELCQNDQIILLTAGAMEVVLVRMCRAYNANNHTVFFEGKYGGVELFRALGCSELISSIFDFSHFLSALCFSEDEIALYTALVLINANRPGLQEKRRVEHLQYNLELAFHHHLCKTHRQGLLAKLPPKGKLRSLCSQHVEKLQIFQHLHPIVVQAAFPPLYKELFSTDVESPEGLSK

target: Nuclear receptor ROR-gamma (Mus musculus) (UniProt P51450); experiment: qHTS for inhibitors of ROR gamma transcriptional activity; conditions: Drosophila S2 Gal4-RORgamma UAS-luciferase reporter, 20 h; activity change, negative = inhibition: at 53.6 µM (top of the series); further: nearly all actives have a fitted effect of over 60% in size
How it was run: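 Luminescence from a UAS-regulated Photinus luciferase reporter in stably transfected Drosophila Schneider cells is measured; decreased signal marks ROR gamma inhibition. Fusion expression is induced by 700 uM copper sulfate for 20 hr.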
On the % scale 0 is the no-effect control and ±100 the full control effect; potency means the concentration at half of the fitted maximal effect.

SMILES	Potency	activity change, negative = inhibition
COc1ccc(N/C=C2/CCCCC2=O)cc1	inconclusive: 35.5 µM [inhibitor, single point]	
Cc1cc(C)cc(-n2c3nc4ccccc4nc3c3c(=O)n(Cc4ccco4)cnc32)c1	active: 11.2 µM	
Cc1cccc(/C=N/NC(=O)c2cc(-c3cccnc3)nc3ccccc23)c1	inconclusive: 31.6 µM [inhibitor, single point]	
Cc1onc(-c2ccccc2)c1C(=O)N/N=C/c1c(F)cccc1Cl	inconclusive: 20 µM [inhibitor, single point]	
CCCC(=O)N(c1ccc2oc(C)c(C(C)=O)c2c1)S(=O)(=O)c1ccc(C)c([N+](=O)[O-])c1	inconclusive: 5.62 µM [activator, single point]	
COc1ccc(NC(=S)N(CCc2c(C)[nH]c3ccc(C)cc23)Cc2cccnc2)cc1	inconclusive: 35.5 µM [activator, single point]	
COCCCNC(=O)c1c(N)n(-c2cccc(S(N)(=O)=O)c2)c2nc3ccccc3nc12	inactive	
O=C1NN=COc2ccccc21	active: 12.6 µM	
CCn1c2ccccc2c2nnc(SCc3ccccc3)nc21	inconclusive: 1.26 µM [activator, full curve, poor fit]	
Cc1sc(C(C2C(=O)CC(C)(C)CC2=O)C2C(=O)CC(C)(C)CC2=O)cc1[N+](=O)[O-]	inconclusive: 35.5 µM [inhibitor, single point]	
Cc1cc(C)c(C#N)c(SCc2cn3c(C)cccc3n2)n1	active: 11.2 µM	
O=C(Nc1ccc(Nc2ccccc2)cc1)N1CCOCC1	inconclusive: 35.5 µM [activator, single point]	
COc1ccccc1-n1cnnc1SCC(=O)NCc1cccs1	inconclusive: 11.2 µM [activator, partial curve]	
CC1=CC(C)(C)N(C(=O)C(C)N2C(=O)c3ccccc3C2=O)c2c(C)cc(C)cc21 (configuration not stated)	inactive	
O=C(Nc1nc2ccc(Cl)cc2s1)c1ccco1	inconclusive: 35.5 µM [inhibitor, single point]	
COc1ccc(CCNC(=O)COc2ccc(-c3ccc(C#N)cc3)cc2)cc1	inactive	
CN(Cc1nc(Cc2cccc(F)c2)no1)CC1CCOCC1	inactive	
Oc1cc2c(cc1O)[C@H]1c3ccc(O)c(O)c3OC[C@@]1(O)C2	inconclusive: 35.5 µM [inhibitor, single point] and inconclusive: 20 µM [inhibitor, partial curve]	
CCOC(=O)c1c(-c2ccc(C)o2)csc1NC(=S)NC(=O)c1cccs1	active: 1.41 µM	
COC(=O)c1[nH]c2ccc(C)cc2c1NC(=O)CN1CCN(c2ccccc2)CC1	inconclusive: 2.82 µM [activator, single point]	
Cc1cc(C)c2cc(C#N)c(N3CCCN(C(=O)c4cnccn4)CC3)nc2c1	inactive	
O=C(N/N=C/c1cccs1)c1cc(-c2ccncc2)nc2ccccc12	active: 5.01 µM	
CCOc1ccc2c(c1)-c1c(ssc1=S)C(C)(C)N2C	inconclusive: 35.5 µM [inhibitor, single point]	
N#C/C(C(=O)N1CCCCC1)=C1/N=C(N)c2ccccc21	inconclusive: 31.6 µM [activator, single point]	

Retrieved one by one from the list above (five):
SMILES	Potency	activity change, negative = inhibition
CCn1c2ccccc2c2nnc(SCc3ccccc3)nc21	inconclusive: 1.26 µM [activator, full curve, poor fit]	
Cc1sc(C(C2C(=O)CC(C)(C)CC2=O)C2C(=O)CC(C)(C)CC2=O)cc1[N+](=O)[O-]	inconclusive: 35.5 µM [inhibitor, single point]	
O=C(Nc1ccc(Nc2ccccc2)cc1)N1CCOCC1	inconclusive: 35.5 µM [activator, single point]	
CCOc1ccc2c(c1)-c1c(ssc1=S)C(C)(C)N2C	inconclusive: 35.5 µM [inhibitor, single point]	
Cc1onc(-c2ccccc2)c1C(=O)N/N=C/c1c(F)cccc1Cl	inconclusive: 20 µM [inhibitor, single point]	

(further entries)

SMILES	Potency	activity change, negative = inhibition
Cc1ccc(-n2nnnc2SCC(=O)Nc2ccc3c(c2)COC3=O)cc1C		inactive: -4.02% [at 0.365 µM]
O=C1CSC(c2c(F)cccc2Cl)N1c1cccc(F)c1 (configuration not stated)	inactive	
CS[C@@H]1SC[C@H]2C(=O)N(C)C(C(C)C)C(=O)OC[C@@H](NC(=O)c3cnc4ccccc4n3)C(=O)N[C@@H](C)C(=O)N(C)[C@H]1C(=O)N(C)C(C(C)C)C(=O)OC[C@@H](NC(=O)c1cnc3ccccc3n1)C(=O)N[C@@H](C)C(=O)N2C (some centres not stated)	active: 0.0398 µM	
CS(=O)(=O)c1nc(-c2ccc(F)cc2)cc(C(F)(F)F)n1	active: 2.51 µM	
COc1ccc(Cl)cc1-c1ccc(C(=O)O)o1	inactive	
CC(C)Cn1c(N)c(C(=O)COC(=O)/C=C/c2cccs2)c(=O)n(C)c1=O	inconclusive: 31.6 µM [activator, single point]	
Cc1nc2cc(Cl)c(Cl)cc2nc1C	inconclusive: 10 µM [activator, partial curve]	
CC(Sc1nc(N2CCOCC2)c2c(c1C#N)CC(C)(C)OC2)C(=O)Nc1ccccc1 (configuration not stated)	inactive	
COc1ccccc1-c1ccc(=O)n(CC(=O)NC2CCc3ccccc32)n1 (configuration not stated)	active: 3.55 µM	
COc1cc(Br)c(C2CC(=O)Nc3cc(OC)c(OC)cc32)cc1OC (configuration not stated)	inactive	
O=C(NC(=S)Nc1ccc2c(c1)OCCO2)c1ccccc1F	active: 10 µM	
CCc1cc(C(=O)NNC(=O)CCl)sc1C	active: 10 µM	
Cc1nc2ccc(NC(=O)c3ccc(F)c(S(=O)(=O)N4CCOCC4)c3)cc2s1	inconclusive: 11.2 µM [activator, partial curve]	
CC(C)CNC(=S)N1CCC(Cc2ccccc2)CC1	active: 10 µM	
COc1ccccc1N1CC=C(c2cccc([N+](=O)[O-])c2)NC1=O	inactive	
C=CC(N)CCC(=O)O (configuration not stated)	inactive	
CCN(CC)S(=O)(=O)c1cccc(NC(=O)C(=O)c2c(-c3ccccc3)cc3ccccn23)c1	active: 7.94 µM	
C=CCN(c1ccc(C(=O)Nc2ccc(C)c(C)c2)cc1)S(C)(=O)=O	inconclusive: 20 µM [activator, single point]	
CC1(C)CC2CC(C)(CN2C(=S)Nc2ccccc2F)C1 (configuration not stated)	active: 3.98 µM	
COc1ccccc1NC(=O)c1cc(S(=O)(=O)NCc2ccccc2)ccc1F	inconclusive: 12.6 µM [activator, single point]	
Cc1cc(O)c2c(-c3ccccc3)cc(=O)oc2c1	inconclusive: 35.5 µM [activator, single point]	
Cc1cccc2sc(N(CCCN(C)C)C(=O)c3ccc(S(=O)(=O)N4CCc5ccccc5C4)cc3)nc12	inconclusive: 25.1 µM [inhibitor, single point]	
Cc1ccc(NC(=O)c2nc[nH]c2C(=O)NCC(=O)OC(C)(C)C)cc1	active: 6.31 µM	
Cc1cc(Cl)c2oc(C(=O)N(CCO)Cc3ccccc3)c(C)c2c1	inconclusive: 14.1 µM [activator, partial curve, poor fit]	

SMILES	Potency	activity change, negative = inhibition
Cc1ccc(C)c(S(=O)(=O)N2C(=S)NC(=O)C2C(C)C)c1 (configuration not stated)	inconclusive: 0.631 µM [inhibitor, full curve, poor fit]	
CCC(c1nc2ccccc2c(=O)n1-c1nc2ccccc2s1)N1C(=O)c2ccccc2C1=O (configuration not stated)	inactive	
COc1ccc(S(=O)(=O)Nc2ccccc2C(=O)Nc2nc(-c3ccc(F)cc3)cs2)cc1OC	inconclusive: 10 µM [activator, partial curve]	
Cc1ccc(NC(=O)c2cc3c(s2)CCCC3)cc1	inconclusive: 11.2 µM [activator, partial curve, poor fit]	
CCc1nnc(NC(=O)CSc2nc3cc4c(cc3cc2C)OCCO4)s1	inconclusive: 35.5 µM [inhibitor, partial curve, poor fit]	
Cc1ccsc1-c1n[nH]c(=S)n1CC(C)C	active: 2.82 µM	
Cc1ccc(CNC(=O)C2CCC(=O)N(CCc3ccc(Cl)cc3)C2)cc1 (configuration not stated)	inconclusive: 35.5 µM [activator, single point]	
CN(Cc1ccco1)C(=O)Cn1c(=O)oc2cc(S(=O)(=O)NCc3ccccc3)ccc21	inconclusive: 22.4 µM [activator, partial curve]	
O=S(=O)(c1ccc(-c2n[nH]c(=S)o2)cc1)N1CCCCC1	inconclusive: 11.2 µM [inhibitor, partial curve]	
O=c1cc(-c2ccccc2)nc2cc(-c3ccco3)[nH]n12	inconclusive: 8.91 µM [inhibitor, partial curve, poor fit]	
CCOc1ccc(N2CC(C(=O)N3CCCc4ccccc43)CC2=O)cc1 (configuration not stated)	inconclusive: 17.8 µM [activator, single point]	
CCc1ccccc1OCC(=O)Nc1ccc2c(c1)OCCO2	inconclusive: 35.5 µM [inhibitor, single point]	
CCOc1ccc(C(=O)N(CN2CCCC2=O)c2ccc(C)cc2)cc1	inconclusive: 35.5 µM [activator, single point]	
Oc1c(Cl)cc(Cl)cc1C1=NNC(c2ccc(Cl)cc2)C1 (configuration not stated)	active: 8.91 µM	
O=S(=O)(c1ccc2ccccc2c1)N1CCN(CCO)CC1	inactive	
CC(C)(C)C(=O)/C=c1\[nH]c(=O)/c(=C\c2ccccc2F)s1	inconclusive: 3.98 µM [inhibitor, single point]	
Cc1ccc(CC(=O)Nc2nc3ccccc3[nH]2)cc1C	active: 3.16 µM	
O=C(Nc1ccccc1-c1ccccc1)C1CCCC1	inactive	
CC(=O)C(Cc1ccccc1)NC(=O)CN1CCN(Cc2ccccc2)CC1 (configuration not stated)	inactive	
CS(=O)(=O)N(CC(=O)NCc1ccccc1)C1CCCCC1	inconclusive: 0.158 µM [inhibitor, full curve, poor fit]	
Cc1ccc(C)c(NCC(=O)c2ccc(Cl)cc2)c1	inconclusive: 10 µM [inhibitor, partial curve, poor fit]	
O=C1C2CCCCN2C(=O)N1CCCCN1CCN(c2cccc(Cl)c2)CC1 (configuration not stated)	inactive	
CCN(CC)C(=O)C1=C(C)NC(=S)NC1c1cn(-c2ccccc2)nc1-c1ccc(Cl)cc1 (configuration not stated)	inconclusive: 17.8 µM [inhibitor, single point]	
Cc1cc(=O)c2c(O)c3c(O)cc(=O)c4c3c3c(cc(O)c1c23)C(C)(C)C=4O	inactive and active: 7.08 µM	
